Measured values published in patent US7815940B2, “Gastric acid secretion inhibiting composition” (priority 2001, dated 2010).
At least one structure is not confirmed: it was looked up by name or label, or the drawing left a doubt.

Chains of the proteins cited; added tags and fusions are not shown.
UniProt P20648, whole entry: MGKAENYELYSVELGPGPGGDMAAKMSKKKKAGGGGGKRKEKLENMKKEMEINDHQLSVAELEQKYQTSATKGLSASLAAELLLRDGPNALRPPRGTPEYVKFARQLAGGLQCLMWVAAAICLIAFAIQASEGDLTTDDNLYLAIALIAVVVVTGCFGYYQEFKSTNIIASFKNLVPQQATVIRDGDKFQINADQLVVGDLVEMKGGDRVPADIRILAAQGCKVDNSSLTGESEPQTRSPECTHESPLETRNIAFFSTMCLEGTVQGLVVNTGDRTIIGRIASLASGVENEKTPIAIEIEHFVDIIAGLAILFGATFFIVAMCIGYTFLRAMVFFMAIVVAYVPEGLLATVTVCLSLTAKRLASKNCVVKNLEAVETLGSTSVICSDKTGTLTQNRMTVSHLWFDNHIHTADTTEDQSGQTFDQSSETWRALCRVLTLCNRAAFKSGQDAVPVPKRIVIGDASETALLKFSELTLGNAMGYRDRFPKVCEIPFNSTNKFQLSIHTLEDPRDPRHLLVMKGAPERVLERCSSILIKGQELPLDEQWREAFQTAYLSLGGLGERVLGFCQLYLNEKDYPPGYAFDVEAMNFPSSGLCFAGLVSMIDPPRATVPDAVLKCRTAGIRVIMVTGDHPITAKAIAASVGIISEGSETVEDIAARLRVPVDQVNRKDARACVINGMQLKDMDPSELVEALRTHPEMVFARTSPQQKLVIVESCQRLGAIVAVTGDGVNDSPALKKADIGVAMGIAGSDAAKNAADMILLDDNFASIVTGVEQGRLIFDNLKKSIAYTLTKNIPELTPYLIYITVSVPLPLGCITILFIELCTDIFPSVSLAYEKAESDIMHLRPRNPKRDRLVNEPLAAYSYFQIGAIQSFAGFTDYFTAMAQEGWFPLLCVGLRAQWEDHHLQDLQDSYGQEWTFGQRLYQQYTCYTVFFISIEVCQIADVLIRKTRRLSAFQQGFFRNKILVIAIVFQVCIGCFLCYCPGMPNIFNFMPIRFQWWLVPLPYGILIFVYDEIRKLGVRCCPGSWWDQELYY

What was measured:
[1] = tested on: gastric acid secretion (gastric pH); assay: Inhibition of gastric acid secretion: gastric pH trace recorded by microelectrode after nasogastric administration; format: in vivo, human (healthy subject); conditions: healthy subject; omeprazole (Losec) pellets 20 mg alone through nasogastric tube; after 4 hours from injection; FIG. 7
gastric H+,K+-ATPase = target: T1, gastric H+,K+-ATPase (Homo sapiens, UniProt P20648); conditions: repeated treatment; cited from earlier work
T1 construct: In gastric mucosa, the acid susceptible proton pump is situated in the apical membrane and in the tubovesicles; from tissue; host or cells: gastric mucosa, parietal cell (in vivo)

In the case of `COc1ccc2[nH]c([S+]([O-])Cc3ncc(C)c(OC)c3C)nc2c1` (centres unmarked) [omeprazole], the “change of gastric pH” value [1] is listed as “no increase in pH” and the “time until maximal acid inhibitory effect is reached” value (gastric H+,K+-ATPase) is listed as “about five”.
